Article PMC4062937

Chains of the proteins cited; added tags and fusions are not shown. Residues count along the entry.
UniProt Q13586, residues 23-685: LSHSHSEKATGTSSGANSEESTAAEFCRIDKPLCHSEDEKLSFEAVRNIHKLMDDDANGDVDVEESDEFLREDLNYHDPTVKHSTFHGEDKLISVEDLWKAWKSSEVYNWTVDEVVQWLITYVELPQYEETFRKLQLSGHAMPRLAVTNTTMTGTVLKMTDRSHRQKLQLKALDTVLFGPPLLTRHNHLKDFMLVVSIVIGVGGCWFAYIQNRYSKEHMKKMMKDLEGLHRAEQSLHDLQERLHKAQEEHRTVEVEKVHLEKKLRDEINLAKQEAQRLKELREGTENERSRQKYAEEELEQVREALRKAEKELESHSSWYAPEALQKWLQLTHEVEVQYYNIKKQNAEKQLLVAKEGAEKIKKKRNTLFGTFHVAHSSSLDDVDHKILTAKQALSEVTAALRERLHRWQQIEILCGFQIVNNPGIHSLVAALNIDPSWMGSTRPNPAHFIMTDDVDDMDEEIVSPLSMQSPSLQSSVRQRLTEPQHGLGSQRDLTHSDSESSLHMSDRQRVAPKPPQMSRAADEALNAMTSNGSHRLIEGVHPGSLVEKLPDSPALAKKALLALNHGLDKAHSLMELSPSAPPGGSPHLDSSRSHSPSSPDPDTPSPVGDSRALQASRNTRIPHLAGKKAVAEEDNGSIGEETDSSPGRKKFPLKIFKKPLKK
UniProt P35579: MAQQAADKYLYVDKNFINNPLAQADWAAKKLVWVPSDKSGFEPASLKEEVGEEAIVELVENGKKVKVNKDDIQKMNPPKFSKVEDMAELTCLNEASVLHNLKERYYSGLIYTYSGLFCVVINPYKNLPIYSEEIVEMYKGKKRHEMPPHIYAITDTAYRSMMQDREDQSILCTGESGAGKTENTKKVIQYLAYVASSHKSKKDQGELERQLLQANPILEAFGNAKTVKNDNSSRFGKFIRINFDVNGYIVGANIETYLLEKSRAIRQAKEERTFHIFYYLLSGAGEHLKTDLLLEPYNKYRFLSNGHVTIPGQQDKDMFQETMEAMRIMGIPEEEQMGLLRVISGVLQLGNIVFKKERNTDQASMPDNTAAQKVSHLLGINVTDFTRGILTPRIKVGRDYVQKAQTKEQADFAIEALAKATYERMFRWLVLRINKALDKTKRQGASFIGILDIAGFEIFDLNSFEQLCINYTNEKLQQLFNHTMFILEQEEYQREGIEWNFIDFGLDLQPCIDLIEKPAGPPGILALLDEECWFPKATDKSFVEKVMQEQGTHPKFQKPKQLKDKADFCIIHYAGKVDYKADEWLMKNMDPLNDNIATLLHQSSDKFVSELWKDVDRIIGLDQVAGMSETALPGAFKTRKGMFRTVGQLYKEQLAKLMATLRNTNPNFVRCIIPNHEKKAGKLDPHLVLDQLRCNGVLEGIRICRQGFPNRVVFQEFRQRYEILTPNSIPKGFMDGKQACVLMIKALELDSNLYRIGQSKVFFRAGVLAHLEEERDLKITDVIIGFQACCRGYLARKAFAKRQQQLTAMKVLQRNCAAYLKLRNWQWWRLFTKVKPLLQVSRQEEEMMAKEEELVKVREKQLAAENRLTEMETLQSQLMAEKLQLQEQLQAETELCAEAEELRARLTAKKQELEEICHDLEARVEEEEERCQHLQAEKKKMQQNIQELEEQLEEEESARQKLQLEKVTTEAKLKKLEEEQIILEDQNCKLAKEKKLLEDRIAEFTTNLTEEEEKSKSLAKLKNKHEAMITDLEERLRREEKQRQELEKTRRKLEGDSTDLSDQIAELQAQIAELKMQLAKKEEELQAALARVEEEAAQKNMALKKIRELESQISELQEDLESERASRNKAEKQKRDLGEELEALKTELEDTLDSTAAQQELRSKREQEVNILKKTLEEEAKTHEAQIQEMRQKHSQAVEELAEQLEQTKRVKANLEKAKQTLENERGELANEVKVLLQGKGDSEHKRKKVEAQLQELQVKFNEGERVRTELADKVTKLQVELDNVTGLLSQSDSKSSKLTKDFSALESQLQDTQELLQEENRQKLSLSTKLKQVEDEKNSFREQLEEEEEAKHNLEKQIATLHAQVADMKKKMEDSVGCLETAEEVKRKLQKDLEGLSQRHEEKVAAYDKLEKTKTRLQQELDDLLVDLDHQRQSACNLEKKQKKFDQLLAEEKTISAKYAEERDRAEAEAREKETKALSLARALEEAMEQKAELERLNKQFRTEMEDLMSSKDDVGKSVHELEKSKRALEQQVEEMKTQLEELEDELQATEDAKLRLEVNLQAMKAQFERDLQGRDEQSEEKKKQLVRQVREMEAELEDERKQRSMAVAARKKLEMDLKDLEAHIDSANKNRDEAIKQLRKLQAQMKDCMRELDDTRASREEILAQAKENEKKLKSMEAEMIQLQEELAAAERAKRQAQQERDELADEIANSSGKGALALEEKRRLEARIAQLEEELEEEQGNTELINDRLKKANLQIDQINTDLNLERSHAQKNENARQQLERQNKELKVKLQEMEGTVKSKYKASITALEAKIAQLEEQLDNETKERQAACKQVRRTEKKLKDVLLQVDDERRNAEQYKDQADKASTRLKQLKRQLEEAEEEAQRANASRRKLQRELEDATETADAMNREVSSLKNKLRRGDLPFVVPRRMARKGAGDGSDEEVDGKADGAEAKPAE
UniProt P07996, residues 19-1170: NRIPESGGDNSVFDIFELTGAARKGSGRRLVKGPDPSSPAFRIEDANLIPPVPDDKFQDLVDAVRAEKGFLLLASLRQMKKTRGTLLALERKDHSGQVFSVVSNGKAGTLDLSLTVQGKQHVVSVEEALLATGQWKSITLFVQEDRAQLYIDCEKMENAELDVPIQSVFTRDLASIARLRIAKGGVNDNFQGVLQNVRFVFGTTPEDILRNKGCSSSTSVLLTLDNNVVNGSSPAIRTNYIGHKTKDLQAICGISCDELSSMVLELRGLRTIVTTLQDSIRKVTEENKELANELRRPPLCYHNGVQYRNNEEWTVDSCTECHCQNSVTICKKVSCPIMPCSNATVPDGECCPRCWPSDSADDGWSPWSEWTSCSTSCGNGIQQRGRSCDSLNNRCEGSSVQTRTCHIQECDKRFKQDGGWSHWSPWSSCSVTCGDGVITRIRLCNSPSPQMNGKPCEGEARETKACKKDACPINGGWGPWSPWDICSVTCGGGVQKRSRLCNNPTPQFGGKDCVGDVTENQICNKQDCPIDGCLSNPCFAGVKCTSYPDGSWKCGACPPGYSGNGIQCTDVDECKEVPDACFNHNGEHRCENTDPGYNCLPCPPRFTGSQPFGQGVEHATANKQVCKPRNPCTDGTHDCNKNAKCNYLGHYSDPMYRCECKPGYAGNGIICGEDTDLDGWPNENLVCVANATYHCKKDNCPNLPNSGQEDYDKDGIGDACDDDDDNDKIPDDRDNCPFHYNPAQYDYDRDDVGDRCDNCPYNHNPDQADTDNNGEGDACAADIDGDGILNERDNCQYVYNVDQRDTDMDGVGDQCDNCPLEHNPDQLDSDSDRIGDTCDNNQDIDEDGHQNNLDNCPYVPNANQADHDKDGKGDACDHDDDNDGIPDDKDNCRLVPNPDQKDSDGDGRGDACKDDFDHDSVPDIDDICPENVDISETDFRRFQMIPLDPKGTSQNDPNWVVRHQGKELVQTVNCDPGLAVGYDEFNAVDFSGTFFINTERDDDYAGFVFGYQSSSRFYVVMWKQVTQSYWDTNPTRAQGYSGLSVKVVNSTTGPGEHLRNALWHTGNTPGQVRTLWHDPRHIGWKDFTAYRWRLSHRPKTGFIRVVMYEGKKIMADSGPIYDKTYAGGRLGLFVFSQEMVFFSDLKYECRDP
UniProt Q96BY6: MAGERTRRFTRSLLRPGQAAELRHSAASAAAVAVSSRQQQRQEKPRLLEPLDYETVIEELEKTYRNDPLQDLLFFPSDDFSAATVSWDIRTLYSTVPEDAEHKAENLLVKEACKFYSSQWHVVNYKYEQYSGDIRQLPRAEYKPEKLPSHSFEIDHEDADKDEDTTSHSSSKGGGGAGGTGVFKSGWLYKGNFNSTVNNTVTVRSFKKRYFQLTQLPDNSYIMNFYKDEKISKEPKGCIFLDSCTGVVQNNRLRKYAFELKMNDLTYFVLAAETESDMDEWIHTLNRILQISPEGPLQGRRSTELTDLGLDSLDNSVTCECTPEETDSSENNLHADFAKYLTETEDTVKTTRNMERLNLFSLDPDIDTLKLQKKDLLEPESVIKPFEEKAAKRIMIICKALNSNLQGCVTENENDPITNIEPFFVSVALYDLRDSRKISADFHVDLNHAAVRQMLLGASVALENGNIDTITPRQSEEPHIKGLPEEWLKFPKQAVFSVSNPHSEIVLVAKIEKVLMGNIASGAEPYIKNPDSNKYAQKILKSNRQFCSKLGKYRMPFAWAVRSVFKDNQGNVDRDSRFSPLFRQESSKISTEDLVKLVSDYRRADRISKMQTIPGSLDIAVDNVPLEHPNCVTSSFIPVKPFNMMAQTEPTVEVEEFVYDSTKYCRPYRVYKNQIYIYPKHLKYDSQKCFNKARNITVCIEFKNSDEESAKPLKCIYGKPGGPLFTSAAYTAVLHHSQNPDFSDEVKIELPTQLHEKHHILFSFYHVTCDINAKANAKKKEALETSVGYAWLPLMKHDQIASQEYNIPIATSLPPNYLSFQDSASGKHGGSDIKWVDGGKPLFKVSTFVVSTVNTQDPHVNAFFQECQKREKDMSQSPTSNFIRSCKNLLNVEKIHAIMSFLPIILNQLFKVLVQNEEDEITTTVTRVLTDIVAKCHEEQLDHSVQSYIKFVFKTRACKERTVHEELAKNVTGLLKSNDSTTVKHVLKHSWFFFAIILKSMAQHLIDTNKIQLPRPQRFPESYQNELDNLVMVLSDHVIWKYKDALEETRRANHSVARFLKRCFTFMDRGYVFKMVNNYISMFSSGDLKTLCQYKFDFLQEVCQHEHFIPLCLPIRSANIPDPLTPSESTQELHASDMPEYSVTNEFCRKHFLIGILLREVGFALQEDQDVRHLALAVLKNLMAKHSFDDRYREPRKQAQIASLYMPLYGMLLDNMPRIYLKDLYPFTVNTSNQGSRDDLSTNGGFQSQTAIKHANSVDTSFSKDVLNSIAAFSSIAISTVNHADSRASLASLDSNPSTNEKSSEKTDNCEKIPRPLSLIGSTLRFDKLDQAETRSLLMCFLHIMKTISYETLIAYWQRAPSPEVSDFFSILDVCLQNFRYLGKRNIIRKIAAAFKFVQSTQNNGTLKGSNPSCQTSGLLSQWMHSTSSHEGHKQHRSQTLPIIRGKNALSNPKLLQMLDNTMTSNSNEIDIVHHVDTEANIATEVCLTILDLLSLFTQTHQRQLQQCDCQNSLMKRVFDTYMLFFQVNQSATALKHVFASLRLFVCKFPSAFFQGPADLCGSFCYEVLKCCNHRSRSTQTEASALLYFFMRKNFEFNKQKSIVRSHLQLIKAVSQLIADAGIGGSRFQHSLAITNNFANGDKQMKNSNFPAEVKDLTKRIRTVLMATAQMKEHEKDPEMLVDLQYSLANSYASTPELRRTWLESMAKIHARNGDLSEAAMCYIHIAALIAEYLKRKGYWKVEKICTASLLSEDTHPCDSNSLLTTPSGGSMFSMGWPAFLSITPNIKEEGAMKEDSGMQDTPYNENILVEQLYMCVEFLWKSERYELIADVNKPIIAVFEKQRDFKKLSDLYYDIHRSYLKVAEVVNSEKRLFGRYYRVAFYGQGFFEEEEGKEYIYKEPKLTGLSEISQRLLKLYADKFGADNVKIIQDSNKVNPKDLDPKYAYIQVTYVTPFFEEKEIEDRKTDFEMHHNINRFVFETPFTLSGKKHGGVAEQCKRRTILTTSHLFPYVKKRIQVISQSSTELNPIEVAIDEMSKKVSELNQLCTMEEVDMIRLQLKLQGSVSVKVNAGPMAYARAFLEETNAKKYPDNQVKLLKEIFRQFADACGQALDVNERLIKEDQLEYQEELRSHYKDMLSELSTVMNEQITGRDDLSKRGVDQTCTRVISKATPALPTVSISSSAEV

Target: Stromal interaction molecule 1 (human (endogenous in platelets)) (UniProt Q13586)
Test: affinity purification with mass spectrometry; STIM1 immunoprecipitated with an antibody to its C-terminus from human platelets (1 x 10^9 cells/ml) treated with TG for 1 min and lysed in RIPA lysis buffer; 5-15% gradient SDS-PAGE, in-gel trypsin digestion, LC-MS/MS; proteins with 2 or more peptides listed

binding	Substance
binds	Myosin-9, non-muscle (from UniProt P35579 1-1960)
binds	Thrombospondin-1 (from UniProt P07996 19-1170)
binds	Dedicator of cytokinesis protein 10 (from UniProt Q96BY6 1-2186)

No constants are given. Whether binding was seen depends on the method and setting. Binding seen in cells or lysates may run through a third protein. Here binding means that the protein was enriched with, or labelled near, the bait; the list need not be complete.
